Assay results as given in EP0676201B1, “Use of a riminophenazine for treating MDR resistance” (priority 1994, dated 1995).
Some of these results come from one statement about several compounds together.

system: H69/LX4; test: MTT assay, 7-day exposure to riminophenazines alone or with fixed doxorubicin or vinblastine (Example 3); conditions: with doxorubicin 12,5 ng/ml or vinblastine 25 ng/ml, Figures 4 to 7

| SMILES | MDR reversal properties |
| --- | --- |
| CC1(C)CC(N=c2cc3n(-c4ccc(C(F)(F)F)cc4)c4ccccc4nc-3cc2Nc2ccc(C(F)(F)F)cc2)CC(C)(C)N1 [Compound B4103, N,5-bis(4-trifluoromethylphenyl)-3,5-dihydro-3[(2',2',6',6'-tetramethyl-4-piperidyl)imino]-2-phenazinamine] | Very good MDR reversal properties |
| CC(C)c1ccc(Nc2cc3nc4ccccc4n(-c4ccc(C(C)C)cc4)c-3cc2=NC2CC(C)(C)NC(C)(C)C2)cc1 [Compound B4158, N,5-bis(4-isopropylphenyl)-3,5-dihydro-3-[(2',2',6',6'-tetramethyl-4-piperidyl)-imino]-2-phenazinamine] | Very good MDR reversal properties |
| CC1(C)CC(N=c2cc3n(-c4cc(Cl)c(Cl)c(Cl)c4)c4ccccc4nc-3cc2Nc2cc(Cl)c(Cl)c(Cl)c2)CC(C)(C)N1 [Compound B4169, N,5-bis(3,4,5-trichlorophenyl)-3,5-dihydro-3[(2',2',6',6'-tetramethyl-4-piperidyl)-imino]-2-phenazinamine] | Very good MDR reversal properties |
